Results from PMC3192838.
These are yes or no findings as the source states them, for the method shown. Binding seen in cells or lysates may run through a third protein. Some results given as binding are weak or reduced against the parent protein; the word gives no strength.

Protein sequences, listed by entry. Tags and fused reporters are not part of them. Lines headed by an entry give the natural chain unless they say otherwise; changes in a name come on top.
UniProt P19525: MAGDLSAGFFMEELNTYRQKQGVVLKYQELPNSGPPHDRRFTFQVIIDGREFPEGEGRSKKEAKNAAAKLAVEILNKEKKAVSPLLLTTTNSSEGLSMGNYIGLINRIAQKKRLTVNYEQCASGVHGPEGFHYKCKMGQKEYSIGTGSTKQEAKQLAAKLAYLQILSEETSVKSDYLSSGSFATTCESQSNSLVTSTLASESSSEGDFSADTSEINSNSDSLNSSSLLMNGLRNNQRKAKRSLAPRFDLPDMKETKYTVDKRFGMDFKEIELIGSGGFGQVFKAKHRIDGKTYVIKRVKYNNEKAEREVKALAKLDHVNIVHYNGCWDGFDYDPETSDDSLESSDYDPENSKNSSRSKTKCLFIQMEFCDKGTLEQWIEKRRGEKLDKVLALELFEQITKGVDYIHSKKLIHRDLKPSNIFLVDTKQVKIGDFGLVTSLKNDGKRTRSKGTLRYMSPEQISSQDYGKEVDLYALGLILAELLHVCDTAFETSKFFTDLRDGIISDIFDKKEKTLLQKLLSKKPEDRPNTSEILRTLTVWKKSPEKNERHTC
UniProt Q7Z434: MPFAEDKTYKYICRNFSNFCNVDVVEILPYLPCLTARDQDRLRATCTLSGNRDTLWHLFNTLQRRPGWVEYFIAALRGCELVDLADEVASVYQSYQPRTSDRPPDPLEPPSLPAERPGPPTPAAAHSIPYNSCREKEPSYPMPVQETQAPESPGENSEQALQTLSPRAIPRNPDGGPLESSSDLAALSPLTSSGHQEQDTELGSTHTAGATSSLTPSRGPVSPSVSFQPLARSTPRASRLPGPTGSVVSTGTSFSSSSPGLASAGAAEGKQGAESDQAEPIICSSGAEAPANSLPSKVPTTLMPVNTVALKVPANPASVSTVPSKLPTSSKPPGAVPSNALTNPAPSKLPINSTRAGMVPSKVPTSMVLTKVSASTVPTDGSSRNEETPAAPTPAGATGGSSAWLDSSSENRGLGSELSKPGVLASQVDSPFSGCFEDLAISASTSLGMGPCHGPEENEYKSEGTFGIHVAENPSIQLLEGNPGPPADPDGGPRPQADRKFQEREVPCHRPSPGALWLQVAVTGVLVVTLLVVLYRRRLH

Assays:
[1] = target: PKR, dsRNA-dependent eIF2α kinase (human (endogenous in Huh7.25.CD81)) (UniProt P19525); assay: co-IP; immunoprecipitation of endogenous PKR from extracts (3.5 mg) of Huh7.25.CD81 cells infected with JFH1 (m.o.i = 0.2), alone or in presence of C16; lysis buffer 50 mM TRIS-HCl pH 7.5, 140 mM NaCl, 5% glycerol, 1% CHAPS; antibody at 4°C overnight, A/G-agarose beads; immunoblot (Odyssey)
[2] = target: PKR, dsRNA-dependent eIF2α kinase (human (endogenous in Huh7.25.CD81)) (UniProt P19525); assay: condition: only cells treated with the PRI peptide (30 mM as printed in the methods); co-IP; as a1, but cells infected with JFH1 in presence of the cell-permeable PRI peptide (re-added every hour); immunoprecipitation of endogenous PKR; immunoblot
[3] = target: MAVS, mitochondria-bound adapter protein (human (endogenous in Huh7.25.CD81)) (UniProt Q7Z434); assay: co-IP; immunoprecipitation of endogenous MAVS from extracts (4.5 mg) of Huh7.25.CD81 cells transfected with siRNA Control or siRNA ISG15 for 48 hrs and infected with JFH1 (m.o.i = 0.2); 1% CHAPS lysis buffer; immunoblot for PKR, MAVS, RIG-I, TRAF3

For “MAVS, mitochondria-bound adapter protein (from UniProt Q7Z434 1-540)”, the binding [1] was “binds” and the binding [2] was “no binding”.
In the case of “PKR, dsRNA-dependent eIF2α kinase (from UniProt P19525-1 1-551)”, the binding [3] is reported as “binds”.
